# US20200030288A1, “STATIN FOR PREVENTION/REDUCTION OF ISCHEMIA-RELATED DAMAGE” (Fundacio Institut De Recerca De L'Hospial De La Santa Creu …, priority 2017, published 2020)
# Tested on: swine model of myocardial ischemia
# Conditions: 0.3 mg/kg i.v. at 15 min of ischemia; 30, 60 and 90 min after MI induction; vs controls
# Excerpt: Cardiac rhythm, arterial oxymetry, and arterial pressure were continuously monitored during the procedure. Just before starting the procedure a perfusion of amiodarone and lidocaine was initiated as prophylaxis for malignant left ventricular arrhythmias. All animals of the study were subjected to the same antiarrhythmic pharmacological approach allowing a direct comparison between the groups. By percutaneous approach and fluoroscopy guidance ischemia was induced by complete coronary balloon occlusion of the mid-left anterior descending coronary artery. Contrast angiographies were performed to ensure total coronary occlusion.
# Control animals were given intravenous placebo (saline) at 15 min of ischemia. Blood samples (serum) for further assessment of biomarkers of cardiac damage were taken at baseline (i.e. before MI induction or at time=0 min), and at 30 min, 60 min and 90 min after MI induction (ischemia).
# Upon taking the 90 min blood sample, the pigs were sacrificed without reperfusion to obtain myocardial tissue for molecular studies and histology.
# The concentration of IMA (Ischemic Modified Albumin), CFABP (Cardiac Fatty Acid Binding Protein) and Myoglobin was determined by the respective pig ELISA kits in the blood samples taken 30 min, 60 min and 90 min after MI induction and compared to their baseline values (prior to ischemia induction). […]
compound,measurement,value
CC(C)c1c(C(=O)Nc2ccccc2)c(-c2ccccc2)c(-c2ccc(F)cc2)n1CC[C@@H](O)C[C@@H](O)CC(=O)O [atorvastatin],CFABP (Cardiac Fatty Acid Binding Protein) blood levels,significantly reduced
